# Laboratory results as given in the supplement of paper PMC3682954.
# Several values for one entry are separate records, joined by “and”; a condition that tells them apart may be missing. Equal entries are not always repeated. Structures can show the parent of a compound that is named as a salt. ± gives the standard deviation of the averaged measurements. The list shows a part of the results. Many values rest on one well or one pass, so single values are uncertain.
# Test system: RAW 264.7
# Assay: HMGB1-induced TNF-alpha production relative to HMGB1-stimulated control; higher = more TNF-alpha secretion (less inhibition)
# Conditions: stimulus: HMGB1 5 ug/ml, 18 h
# [1] = compound concentration: 1 ug/ml
Compound,HMGB1-induced TNF-alpha production (compound concentration: 3 uM),HMGB1-induced TNF-alpha production [1] [%]
C[C@@H]1CN(c2c(F)c(F)c3c(=O)c(C(=O)O)cn(C4CC4)c3c2F)C[C@H](C)N1,74.6%,
CCC(C)(C)C(=O)O[C@H]1C[C@@H](C)C=C2C=C[C@H](C)[C@H](CC[C@@H]3C[C@@H](O)CC(=O)O3)[C@H]21 [Simvastatin],140 ± 31%,
CCC(C)(C)C(=O)O[C@H]1C[C@@H](C)C=C2C=C[C@H](C)[C@H](CC[C@@H]3C[C@@H](O)CC(=O)O3)[C@H]21,130%,
CC(=O)Oc1ccc(C(c2ccc(OC(C)=O)cc2)c2ccccn2)cc1,87.1%,
CC(=O)Oc1ccc(C(c2ccc(OC(C)=O)cc2)c2ccccn2)cc1 [Bisacodyl],83.4 ± 12%,
O=C1Nc2ccc(Cl)cc2[C@@](C#CC2CC2)(C(F)(F)F)O1 [Efavirenz],75.3 ± 8%,
O=C1Nc2ccc(Cl)cc2[C@@](C#CC2CC2)(C(F)(F)F)O1,86.8%,
Nc1ccc(C(=O)O)c(O)c1 [4-aminosalicylic acid],119%,
Nc1ccc(C(=O)O)c(O)c1,82.8%,
Nc1ccc(C(=O)O)c(O)c1 [4-Aminosalicylic acid],86.6%,
CCCCCCCCCCCCCCCCCCNC(=O)OCC(COP(=O)([O-])OCC[n+]1ccsc1)OC (stereo unspecified),120%,
O=C(O)c1ccccc1Nc1cccc(C(F)(F)F)c1 [Flufenamic acid],86.1 ± 24%,
O=C(O)c1ccccc1Nc1cccc(C(F)(F)F)c1,104%,
CC[N+](C)(CC)CCC[n+]1c(-c2ccccc2)c2cc(N)ccc2c2ccc(N)cc21 [Propidium iodide],110%,
O=C(c1ccc(F)cc1)C1CCN(CCn2c(=S)[nH]c3ccccc3c2=O)CC1 [Altanserin],107%,
OCCc1ccccc1,96.5%,
CC(=O)Nc1ccc(S(=O)(=O)c2ccc(NC(C)=O)cc2)cc1,85.1%,
O=C1O[C@H]([C@@H](O)CO)C(O)=C1O [L(+)-Ascorbic acid],,71.8
O=C1O[C@H]([C@@H](O)CO)C(O)=C1O,89.27 ± 0.58%,
O=C1O[C@H]([C@@H](O)CO)C(O)=C1O [Ascorbic acid],78.9%,
OC[C@H]1O[C@@H](Oc2cccc3cccnc23)[C@H](O)[C@@H](O)[C@@H]1O [8-Hydroxyquinoline beta-D-glucopyranoside],,70.1
"Clc1ccc(C(c2ccccc2Cl)C(Cl)Cl)cc1 (stereo unspecified) [1-(2-Chlorophenyl)-1-(4-chlorophenyl)-2,2-dichloroethane]",75.3%,
Clc1ccc(C(c2ccccc2Cl)C(Cl)Cl)cc1 (stereo unspecified) [Mitotane],101%,

Compound,HMGB1-induced TNF-alpha production (compound concentration: 3 uM),HMGB1-induced TNF-alpha production [1] [%]
Clc1ccc(C(c2ccccc2Cl)C(Cl)Cl)cc1 (stereo unspecified),81.2%,
CC1=CC(=O)C2=C(C)CC[C@@H]3[C@H](OC(=O)[C@H]3C)[C@@H]12 [Leucomisine],139%,
CCc1cc(Cl)c(OC)c(C(=O)NC[C@@H]2CCCN2CC)c1O,98.1%,
CN(C)CCOC(=O)C(c1ccccc1)C1(O)CCCC1 (stereo unspecified) [Cyclopentolate hydrochloride],121%,
CN(C)CCOC(=O)C(c1ccccc1)C1(O)CCCC1 (stereo unspecified),61.9%,
Nc1ccc(/N=N/c2ccccc2)c(N)n1,79.8%,
Nc1ccc(/N=N/c2ccccc2)c(N)n1 [Phenazopyridine hydrochloride],87.1%,
CCC(=O)O[C@]1(C(=O)SCF)[C@H](C)C[C@H]2[C@@H]3C[C@H](F)C4=CC(=O)C=C[C@]4(C)[C@@]3(F)[C@@H](O)C[C@@]21C,40.3%,
CCC(=O)O[C@]1(C(=O)SCF)[C@H](C)C[C@H]2[C@@H]3C[C@H](F)C4=CC(=O)C=C[C@]4(C)[C@@]3(F)[C@@H](O)C[C@@]21C [Fluticasone propionate],33.8%,
Nc1[nH]c(=O)ncc1F,95.3%,
OCCN1CCN(CC/C=C2/c3ccccc3Sc3ccc(Cl)cc32)CC1 [Zuclopenthixol hydrochloride],48.2%,
NCCCS(=O)(=O)O [3-Amino-1-propanesulfonic acid sodium],96.5%,
Nc1nc(/C(=C/CC(=O)O)C(=O)N[C@@H]2C(=O)N3C(C(=O)O)=CCS[C@H]23)cs1,92.6%,
COC(=O)C1=CO[C@@H](C)[C@@H]2CN3CCc4c([nH]c5cc(OC)c(OC)cc45)[C@H]3C[C@H]12 [Reserpiline],,70.1
CC1=CC(=O)[C@H]2C[C@@H]1C2(C)C [L(-)-Verbenone],,80.2
CCc1ccc(/C=C2/SC(=S)NC2=O)cc1,81.3%,
CCN(CC)CCNC(=O)c1cc(Br)c(N)cc1OC [Bromopride],98.7%,
CCN(CC)CCNC(=O)c1cc(Br)c(N)cc1OC,83.7%,
CCCCC(=O)N(Cc1ccc(-c2ccccc2-c2nnn[nH]2)cc1)[C@H](C(=O)O)C(C)C,91.5 ± 11%,
OC(CCN1CCCCC1)(c1ccccc1)c1ccccc1,81.7%,
OC(CCN1CCCCC1)(c1ccccc1)c1ccccc1 [Pridinol methanesulfonate salt],81.2%,
C=CCNc1ncnc2ccc(Br)cc12,89.6%,
O=C(O)c1cc(=O)c2ccccc2[nH]1 [Kynurenic Acid],,54.9

# 6 successive entries from above:
Compound,HMGB1-induced TNF-alpha production (compound concentration: 3 uM),HMGB1-induced TNF-alpha production [1] [%]
O=C1Nc2ccc(Cl)cc2[C@@](C#CC2CC2)(C(F)(F)F)O1 [Efavirenz],75.3 ± 8%,
O=C1Nc2ccc(Cl)cc2[C@@](C#CC2CC2)(C(F)(F)F)O1,86.8%,
Nc1ccc(C(=O)O)c(O)c1 [4-aminosalicylic acid],119%,
Nc1ccc(C(=O)O)c(O)c1,82.8%,
Nc1ccc(C(=O)O)c(O)c1 [4-Aminosalicylic acid],86.6%,
CCCCCCCCCCCCCCCCCCNC(=O)OCC(COP(=O)([O-])OCC[n+]1ccsc1)OC (stereo unspecified),120%,

# The results go on:

Compound,HMGB1-induced TNF-alpha production (compound concentration: 3 uM),HMGB1-induced TNF-alpha production [1] [%]
O=C(O)c1cc(=O)c2ccccc2[nH]1 [Kynurenic acid],99.4%,
O=c1cc(-c2ccc(O)c(O)c2)oc2cccc(O)c12,,55.5
CC(C)NNC(=O)c1ccncc1 [Iproniazide phosphate],89.6%,
CC(C)NNC(=O)c1ccncc1,88.2 ± 14%,
CC(C)NNC(=O)c1ccncc1 [Iproniazid],90.4%,
CC(C)NNC(=O)c1ccncc1 [Iproniazid phosphate],108%,
O=C(O)C(=O)Cc1ccccc1 [Phenylpyruvic acid],,67.4
O=C1c2cccc(O)c2C(=O)c2c(O)cccc21,78.1%,
"O=c1cc(N2CCOCC2)oc2c(-c3ccccc3)cccc12 [LY-294,002 hydrochloride]",89%,
CCOC(N)=O,85.3 ± 6%,
O=C(O)CCC(=O)c1ccc(-c2ccccc2)cc1,64.7%,
O=C(O)CCC(=O)c1ccc(-c2ccccc2)cc1 [Fenbufen],87.72 ± 0.5%,
CCC=CCC1C(=O)CCC1CC(=O)O (racemic) [(+/-)-Jasmonic acid],,76.3
"CCN1CCCC1CNC(=O)c1cc(S(N)(=O)=O)ccc1OC (single isomer, unassigned; (-)) [(-)-Sulpiride]",112%,
CN1CCN2c3ccccc3Cc3ccccc3C2C1 (stereo unspecified) [Mianserine hydrochloride],71.3%,
CN1CCN2c3ccccc3Cc3ccccc3C2C1 (stereo unspecified),86.6%,
CN1CCN2c3ccccc3Cc3ccccc3C2C1 (stereo unspecified) [Mianserin hydrochloride],103%,
CN1CCN2c3ccccc3Cc3ccccc3C2C1 (stereo unspecified) [Mianserin],111%,
N[C@@H](Cc1ccc(O)c(O)c1)C(=O)O,96.3%,
"N[C@@H](Cc1ccc(O)c(O)c1)C(=O)O [L-3,4-Dihydroxyphenylalanine]",92.5%,
N[C@@H](Cc1ccc(O)c(O)c1)C(=O)O [Levodopa],101 ± 40%,
CCCCc1ncc(/C=C(\Cc2cccs2)C(=O)O)n1Cc1ccc(C(=O)O)cc1 [Eprosartan],113%,
O=C(NC(Cc1cc(=O)[nH]c2ccccc12)C(=O)O)c1ccc(Cl)cc1 (stereo unspecified),84.1%,

Compound,HMGB1-induced TNF-alpha production (compound concentration: 3 uM),HMGB1-induced TNF-alpha production [1] [%]
O=C(NC(Cc1cc(=O)[nH]c2ccccc12)C(=O)O)c1ccc(Cl)cc1 (stereo unspecified) [Rebamipide],84.3 ± 3.2%,
CCN1C(=O)C=CC1=O [N-Ethylmaleimide],78.6%,
CC(C)(C)NC[C@H](O)COc1cccc2c1CCCC2=O [(-) -Levobunolol hydrochloride],98.5%,
C[N+](C)(C)CCOC(N)=O [Carbachol],85.2 ± 6.6%,
C[N+](C)(C)CCOC(N)=O,103%,
C[N+](C)(C)CCOC(N)=O [Carbamylcholine],108%,
Nc1ncn(C2OC(CO)C(O)C2O)c(=O)n1 (stereo unspecified) [Azacytidine-5],260%,
O=C(O)c1coc2ccc(F)cc2c1=O [6-Fluorochromone-3-carboxylic acid],,68
CCOC(=O)C1=C(C)NC(C)=C(C(=O)OC)C1c1cccc(Cl)c1Cl (stereo unspecified) [Felodipine],87.3 ± 21%,
C[C@H](CCC(=O)O)[C@H]1CC[C@H]2[C@@H]3C(=O)C[C@@H]4CC(=O)CC[C@]4(C)[C@H]3CC(=O)[C@]12C,80.4% and 95.4%,
C[C@H](CCC(=O)O)[C@H]1CC[C@H]2[C@@H]3C(=O)C[C@@H]4CC(=O)CC[C@]4(C)[C@H]3CC(=O)[C@]12C [Dehydrocholic acid],59.5%,69.3
CO[C@H]1C[C@H](O[C@@H]2/C(C)=C/C[C@@H]3C[C@@H](C[C@]4(CC[C@H](C)[C@@H](C5CCCCC5)O4)O3)OC(=O)[C@@H]3C=C(C)/C(=N/O)[C@H]4OC/C(=C\C=C\[C@@H]2C)[C@]43O)O[C@@H](C)[C@@H]1O,68.9%,
Cc1nc2sccn2c(=O)c1CCN1CCC(=C(c2ccc(F)cc2)c2ccc(F)cc2)CC1 [Ritanserin],87.1%,
Cc1nc2sccn2c(=O)c1CCN1CCC(=C(c2ccc(F)cc2)c2ccc(F)cc2)CC1,65.4%,
O=C1c2c(O)ccc(O)c2C(=O)c2c(NCCNCCO)ccc(NCCNCCO)c21 [Mitoxantrone dihydrochloride],22.2%,
O=C1c2c(O)ccc(O)c2C(=O)c2c(NCCNCCO)ccc(NCCNCCO)c21 [Mitoxantrone],50.1 ± 4%,
O=C1c2c(O)ccc(O)c2C(=O)c2c(NCCNCCO)ccc(NCCNCCO)c21,18.7 ± 14%,
CN(C(=O)CCCOc1ccc2[nH]c(=O)ccc2c1)C1CCCCC1 [Cilostamide],88.3 ± 13%,
NNC(=O)c1ccncc1,102%,
NNC(=O)c1ccncc1 [Isoniazid],89 ± 32%,
CCC(=O)OCC(=O)[C@@]1(OC(=O)CC)[C@@H](C)C[C@H]2[C@@H]3CCC4=CC(=O)C=C[C@]4(C)[C@@]3(F)[C@@H](O)C[C@@]21C,42.6%,
